Test results taken from publication PMC10942865.

By UniProt entry, the sequences of proteins in these tests, tags left out.
UniProt O94986: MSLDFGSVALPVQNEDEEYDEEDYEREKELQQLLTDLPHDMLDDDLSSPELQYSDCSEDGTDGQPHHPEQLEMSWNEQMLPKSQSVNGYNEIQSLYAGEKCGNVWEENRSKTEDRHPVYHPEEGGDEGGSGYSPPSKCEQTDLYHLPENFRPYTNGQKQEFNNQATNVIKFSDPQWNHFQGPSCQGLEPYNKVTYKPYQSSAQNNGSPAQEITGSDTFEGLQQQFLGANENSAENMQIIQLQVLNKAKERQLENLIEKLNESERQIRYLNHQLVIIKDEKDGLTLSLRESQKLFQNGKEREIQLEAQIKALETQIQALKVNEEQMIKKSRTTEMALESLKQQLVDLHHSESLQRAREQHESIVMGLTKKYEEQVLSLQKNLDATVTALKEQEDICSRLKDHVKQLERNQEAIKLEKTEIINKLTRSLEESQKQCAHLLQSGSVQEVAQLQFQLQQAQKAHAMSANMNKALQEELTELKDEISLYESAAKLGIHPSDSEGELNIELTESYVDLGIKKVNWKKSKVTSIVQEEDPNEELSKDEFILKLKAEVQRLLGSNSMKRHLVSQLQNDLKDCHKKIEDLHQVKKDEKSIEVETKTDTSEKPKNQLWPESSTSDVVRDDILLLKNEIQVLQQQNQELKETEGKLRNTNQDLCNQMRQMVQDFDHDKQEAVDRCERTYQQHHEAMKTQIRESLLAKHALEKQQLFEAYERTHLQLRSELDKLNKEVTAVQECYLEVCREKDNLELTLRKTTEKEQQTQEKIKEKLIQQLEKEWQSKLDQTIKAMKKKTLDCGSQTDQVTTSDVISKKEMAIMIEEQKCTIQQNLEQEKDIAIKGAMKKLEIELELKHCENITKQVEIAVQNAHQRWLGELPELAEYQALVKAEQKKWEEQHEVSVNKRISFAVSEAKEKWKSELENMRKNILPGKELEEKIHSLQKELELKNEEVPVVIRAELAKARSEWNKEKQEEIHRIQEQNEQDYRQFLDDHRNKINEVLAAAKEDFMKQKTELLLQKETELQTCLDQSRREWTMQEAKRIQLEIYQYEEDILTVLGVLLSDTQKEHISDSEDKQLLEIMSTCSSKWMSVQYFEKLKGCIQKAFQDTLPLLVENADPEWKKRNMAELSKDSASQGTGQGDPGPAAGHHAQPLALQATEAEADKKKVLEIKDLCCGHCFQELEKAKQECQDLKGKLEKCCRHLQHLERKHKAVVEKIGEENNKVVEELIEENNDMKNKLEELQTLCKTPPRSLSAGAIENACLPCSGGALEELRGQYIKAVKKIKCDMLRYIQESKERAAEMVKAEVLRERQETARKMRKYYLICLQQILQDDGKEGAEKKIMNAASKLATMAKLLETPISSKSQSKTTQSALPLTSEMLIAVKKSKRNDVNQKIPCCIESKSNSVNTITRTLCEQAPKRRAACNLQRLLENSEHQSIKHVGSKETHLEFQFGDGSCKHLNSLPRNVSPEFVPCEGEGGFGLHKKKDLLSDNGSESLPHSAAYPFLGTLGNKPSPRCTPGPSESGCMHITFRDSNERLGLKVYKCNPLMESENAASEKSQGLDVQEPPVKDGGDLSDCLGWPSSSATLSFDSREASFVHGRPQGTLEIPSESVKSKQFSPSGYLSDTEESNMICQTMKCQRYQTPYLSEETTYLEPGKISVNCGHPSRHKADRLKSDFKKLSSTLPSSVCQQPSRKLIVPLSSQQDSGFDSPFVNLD
UniProt Q16531: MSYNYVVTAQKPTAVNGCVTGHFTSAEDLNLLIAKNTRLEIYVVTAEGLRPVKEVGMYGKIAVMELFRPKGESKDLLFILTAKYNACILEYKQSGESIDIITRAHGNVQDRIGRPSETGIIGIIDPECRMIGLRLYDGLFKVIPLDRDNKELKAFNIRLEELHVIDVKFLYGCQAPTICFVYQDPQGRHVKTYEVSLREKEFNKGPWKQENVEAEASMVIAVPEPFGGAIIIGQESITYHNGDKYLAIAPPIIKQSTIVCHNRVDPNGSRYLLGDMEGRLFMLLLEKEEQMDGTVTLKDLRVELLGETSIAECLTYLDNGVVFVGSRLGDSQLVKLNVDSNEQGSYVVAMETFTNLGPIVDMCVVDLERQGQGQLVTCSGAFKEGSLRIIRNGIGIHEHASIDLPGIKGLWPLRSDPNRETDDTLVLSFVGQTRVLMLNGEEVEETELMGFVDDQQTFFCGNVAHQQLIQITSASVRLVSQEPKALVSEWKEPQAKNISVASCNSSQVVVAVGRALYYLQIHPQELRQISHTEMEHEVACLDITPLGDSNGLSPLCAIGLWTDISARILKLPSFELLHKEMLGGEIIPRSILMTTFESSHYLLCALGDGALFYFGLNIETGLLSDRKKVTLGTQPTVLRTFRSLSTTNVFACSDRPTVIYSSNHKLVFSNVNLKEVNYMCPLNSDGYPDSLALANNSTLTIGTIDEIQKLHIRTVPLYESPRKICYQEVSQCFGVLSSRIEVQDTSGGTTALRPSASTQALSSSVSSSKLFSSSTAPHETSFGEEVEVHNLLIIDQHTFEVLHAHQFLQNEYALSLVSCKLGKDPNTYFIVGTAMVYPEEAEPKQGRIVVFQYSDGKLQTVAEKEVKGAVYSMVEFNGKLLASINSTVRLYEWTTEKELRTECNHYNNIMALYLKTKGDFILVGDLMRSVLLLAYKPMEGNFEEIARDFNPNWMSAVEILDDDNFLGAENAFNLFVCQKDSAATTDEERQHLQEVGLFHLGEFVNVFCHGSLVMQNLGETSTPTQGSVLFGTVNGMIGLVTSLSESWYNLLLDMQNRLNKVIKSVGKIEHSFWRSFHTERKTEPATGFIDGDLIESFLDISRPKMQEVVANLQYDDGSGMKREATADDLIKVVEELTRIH
UniProt Q9Y4B6: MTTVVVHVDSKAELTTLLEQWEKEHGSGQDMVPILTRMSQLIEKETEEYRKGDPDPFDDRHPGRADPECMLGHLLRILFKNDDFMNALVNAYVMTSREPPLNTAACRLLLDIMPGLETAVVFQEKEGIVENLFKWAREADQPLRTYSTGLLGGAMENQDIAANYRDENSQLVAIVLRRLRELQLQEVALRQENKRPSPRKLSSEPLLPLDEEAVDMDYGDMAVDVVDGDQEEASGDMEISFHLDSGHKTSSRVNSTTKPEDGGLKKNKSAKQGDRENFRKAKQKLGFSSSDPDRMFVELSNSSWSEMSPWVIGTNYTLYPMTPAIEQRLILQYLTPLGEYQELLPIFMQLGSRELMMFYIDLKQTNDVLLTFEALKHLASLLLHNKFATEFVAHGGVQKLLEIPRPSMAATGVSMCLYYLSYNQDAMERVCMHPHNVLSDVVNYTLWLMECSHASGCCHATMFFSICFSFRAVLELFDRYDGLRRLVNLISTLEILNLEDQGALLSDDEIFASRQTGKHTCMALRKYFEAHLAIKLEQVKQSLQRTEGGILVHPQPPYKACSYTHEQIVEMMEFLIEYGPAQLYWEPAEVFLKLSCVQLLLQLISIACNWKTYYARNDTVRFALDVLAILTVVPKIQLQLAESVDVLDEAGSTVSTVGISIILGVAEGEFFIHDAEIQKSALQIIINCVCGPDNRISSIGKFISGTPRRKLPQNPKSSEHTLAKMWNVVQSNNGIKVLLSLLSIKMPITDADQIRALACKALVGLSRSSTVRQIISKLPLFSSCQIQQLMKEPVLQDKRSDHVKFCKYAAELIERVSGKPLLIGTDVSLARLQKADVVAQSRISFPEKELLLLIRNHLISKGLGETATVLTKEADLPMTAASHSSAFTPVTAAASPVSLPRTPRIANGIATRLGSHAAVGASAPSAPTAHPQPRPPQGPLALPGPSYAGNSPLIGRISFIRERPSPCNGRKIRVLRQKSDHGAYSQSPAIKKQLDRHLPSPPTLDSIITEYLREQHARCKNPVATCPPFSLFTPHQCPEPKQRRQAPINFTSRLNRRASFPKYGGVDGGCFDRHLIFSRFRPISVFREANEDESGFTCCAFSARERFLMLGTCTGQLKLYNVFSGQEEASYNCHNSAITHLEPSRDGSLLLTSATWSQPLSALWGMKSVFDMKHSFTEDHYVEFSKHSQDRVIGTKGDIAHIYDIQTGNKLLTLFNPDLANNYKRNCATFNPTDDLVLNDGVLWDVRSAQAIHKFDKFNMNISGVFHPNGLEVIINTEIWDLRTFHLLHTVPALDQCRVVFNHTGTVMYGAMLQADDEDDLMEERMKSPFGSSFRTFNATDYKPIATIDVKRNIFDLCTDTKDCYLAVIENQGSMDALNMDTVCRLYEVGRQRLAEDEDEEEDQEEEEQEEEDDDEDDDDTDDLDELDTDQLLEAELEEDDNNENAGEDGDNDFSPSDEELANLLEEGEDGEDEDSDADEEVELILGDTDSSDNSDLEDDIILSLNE
UniProt Q96JK2: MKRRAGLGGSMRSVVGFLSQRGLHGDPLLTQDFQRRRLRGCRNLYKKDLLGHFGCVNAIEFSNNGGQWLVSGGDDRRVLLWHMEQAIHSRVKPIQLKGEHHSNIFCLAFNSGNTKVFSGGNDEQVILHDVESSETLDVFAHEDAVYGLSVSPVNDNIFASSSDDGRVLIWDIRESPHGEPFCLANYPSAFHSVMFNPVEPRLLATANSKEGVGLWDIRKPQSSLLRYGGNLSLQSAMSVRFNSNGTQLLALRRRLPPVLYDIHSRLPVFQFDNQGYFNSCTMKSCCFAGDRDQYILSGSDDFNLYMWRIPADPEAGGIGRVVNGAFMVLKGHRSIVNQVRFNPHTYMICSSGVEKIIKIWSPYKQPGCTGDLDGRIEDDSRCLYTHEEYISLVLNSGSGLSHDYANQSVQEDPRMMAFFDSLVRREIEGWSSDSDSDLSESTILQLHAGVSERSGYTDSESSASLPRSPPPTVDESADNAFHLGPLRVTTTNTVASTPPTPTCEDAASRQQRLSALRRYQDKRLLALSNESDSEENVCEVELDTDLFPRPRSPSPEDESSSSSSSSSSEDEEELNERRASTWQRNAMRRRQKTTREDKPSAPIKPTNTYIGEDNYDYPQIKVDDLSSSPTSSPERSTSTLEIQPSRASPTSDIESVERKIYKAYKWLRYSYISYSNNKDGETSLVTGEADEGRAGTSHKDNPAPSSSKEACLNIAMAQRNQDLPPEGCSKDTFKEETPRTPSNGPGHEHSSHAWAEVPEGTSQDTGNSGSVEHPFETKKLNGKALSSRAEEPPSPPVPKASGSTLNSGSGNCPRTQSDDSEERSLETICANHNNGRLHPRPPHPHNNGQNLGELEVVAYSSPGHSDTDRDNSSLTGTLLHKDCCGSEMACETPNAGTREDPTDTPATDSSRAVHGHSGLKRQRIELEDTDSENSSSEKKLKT

Biological target: T1, Flag-PLK4 wt (polo-like kinase 4), full-length (human) (UniProt O00444)
T1 sequence: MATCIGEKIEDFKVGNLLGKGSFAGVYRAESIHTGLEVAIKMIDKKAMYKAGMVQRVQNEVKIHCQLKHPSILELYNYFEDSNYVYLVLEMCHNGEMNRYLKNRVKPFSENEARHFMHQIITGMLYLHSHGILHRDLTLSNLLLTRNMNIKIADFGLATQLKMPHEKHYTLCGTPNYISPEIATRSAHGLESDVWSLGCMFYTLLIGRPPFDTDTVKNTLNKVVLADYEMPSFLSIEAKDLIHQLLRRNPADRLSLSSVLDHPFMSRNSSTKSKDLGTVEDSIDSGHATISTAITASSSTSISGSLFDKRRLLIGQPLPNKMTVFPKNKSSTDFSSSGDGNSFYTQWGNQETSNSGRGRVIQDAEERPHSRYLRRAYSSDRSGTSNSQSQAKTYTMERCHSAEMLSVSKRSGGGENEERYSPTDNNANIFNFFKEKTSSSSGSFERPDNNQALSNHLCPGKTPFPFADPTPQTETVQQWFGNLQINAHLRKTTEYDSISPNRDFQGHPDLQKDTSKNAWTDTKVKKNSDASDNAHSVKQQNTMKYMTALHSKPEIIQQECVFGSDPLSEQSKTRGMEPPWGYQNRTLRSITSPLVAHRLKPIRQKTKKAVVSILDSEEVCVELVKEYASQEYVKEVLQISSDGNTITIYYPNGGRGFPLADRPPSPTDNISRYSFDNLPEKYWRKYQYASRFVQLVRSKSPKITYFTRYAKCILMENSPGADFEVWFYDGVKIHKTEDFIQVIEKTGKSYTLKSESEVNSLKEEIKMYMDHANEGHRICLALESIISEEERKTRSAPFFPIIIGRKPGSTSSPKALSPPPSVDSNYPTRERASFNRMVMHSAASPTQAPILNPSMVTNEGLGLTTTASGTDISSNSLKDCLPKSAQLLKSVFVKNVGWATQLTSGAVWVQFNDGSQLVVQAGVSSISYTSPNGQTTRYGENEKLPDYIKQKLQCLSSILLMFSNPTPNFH
Test: affinity purification with mass spectrometry; Flag-PLK4 IP, elution fractions resolved by SDS-PAGE, gel slices digested with trypsin, nanoLC-ESI-MS/MS, MASCOT search against SwissProt human

binding, binds:
β-TrCP, endogenous (human (endogenous in HEK293T))
CEP152, endogenous (from UniProt O94986 1-1710)
DDB1 (DNA damage-binding protein 1), endogenous (from UniProt Q16531 1-1140)
DCAF1 (VprBP), endogenous (from UniProt Q9Y4B6 1-1507)
DCAF5, endogenous (from UniProt Q96JK2 1-942)

No constants are given. Whether binding was seen depends on the method and setting. In cells and extracts the contact can be indirect. A yes stands for co-enrichment or nearness to the bait. Other partners may have been found. Tags and fused reporters may be left off the sequences shown.
